From the supplement of paper PMC10849652 come the findings set out here.

The chains behind the UniProt entries cited, without tags or fusion partners. Where a name states a change or a piece, a line headed by the entry shows the natural chain unless it says otherwise.
UniProt Q5SWH9: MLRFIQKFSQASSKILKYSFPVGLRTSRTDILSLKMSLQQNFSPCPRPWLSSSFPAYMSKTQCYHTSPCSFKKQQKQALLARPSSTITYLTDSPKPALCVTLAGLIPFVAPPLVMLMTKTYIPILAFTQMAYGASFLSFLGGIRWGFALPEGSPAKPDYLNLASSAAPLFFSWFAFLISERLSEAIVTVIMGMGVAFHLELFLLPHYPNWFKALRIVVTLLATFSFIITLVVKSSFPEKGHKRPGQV
UniProt Q96I45: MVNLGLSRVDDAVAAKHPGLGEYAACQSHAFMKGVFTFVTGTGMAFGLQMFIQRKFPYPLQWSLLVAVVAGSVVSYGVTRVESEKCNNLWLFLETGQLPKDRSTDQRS
UniProt O94886: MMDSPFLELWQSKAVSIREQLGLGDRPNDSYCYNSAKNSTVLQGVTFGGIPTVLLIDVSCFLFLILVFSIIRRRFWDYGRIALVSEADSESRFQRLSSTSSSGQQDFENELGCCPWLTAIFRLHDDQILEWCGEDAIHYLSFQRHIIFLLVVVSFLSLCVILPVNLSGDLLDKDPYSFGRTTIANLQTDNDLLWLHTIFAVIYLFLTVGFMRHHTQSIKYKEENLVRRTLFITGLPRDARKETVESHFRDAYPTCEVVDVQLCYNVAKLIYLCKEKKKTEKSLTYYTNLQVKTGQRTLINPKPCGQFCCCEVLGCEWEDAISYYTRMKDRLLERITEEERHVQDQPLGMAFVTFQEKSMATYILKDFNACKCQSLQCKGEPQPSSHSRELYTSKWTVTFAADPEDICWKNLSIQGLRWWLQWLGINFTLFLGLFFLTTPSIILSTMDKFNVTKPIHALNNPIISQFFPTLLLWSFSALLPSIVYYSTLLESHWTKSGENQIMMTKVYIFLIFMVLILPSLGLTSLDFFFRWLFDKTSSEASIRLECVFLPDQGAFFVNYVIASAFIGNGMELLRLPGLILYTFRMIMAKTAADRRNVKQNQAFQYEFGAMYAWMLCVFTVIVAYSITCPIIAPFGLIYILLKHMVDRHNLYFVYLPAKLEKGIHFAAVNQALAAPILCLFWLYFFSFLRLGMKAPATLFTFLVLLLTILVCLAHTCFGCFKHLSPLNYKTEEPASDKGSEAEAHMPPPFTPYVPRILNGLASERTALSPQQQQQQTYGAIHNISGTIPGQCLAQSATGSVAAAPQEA
UniProt Q8TDI8: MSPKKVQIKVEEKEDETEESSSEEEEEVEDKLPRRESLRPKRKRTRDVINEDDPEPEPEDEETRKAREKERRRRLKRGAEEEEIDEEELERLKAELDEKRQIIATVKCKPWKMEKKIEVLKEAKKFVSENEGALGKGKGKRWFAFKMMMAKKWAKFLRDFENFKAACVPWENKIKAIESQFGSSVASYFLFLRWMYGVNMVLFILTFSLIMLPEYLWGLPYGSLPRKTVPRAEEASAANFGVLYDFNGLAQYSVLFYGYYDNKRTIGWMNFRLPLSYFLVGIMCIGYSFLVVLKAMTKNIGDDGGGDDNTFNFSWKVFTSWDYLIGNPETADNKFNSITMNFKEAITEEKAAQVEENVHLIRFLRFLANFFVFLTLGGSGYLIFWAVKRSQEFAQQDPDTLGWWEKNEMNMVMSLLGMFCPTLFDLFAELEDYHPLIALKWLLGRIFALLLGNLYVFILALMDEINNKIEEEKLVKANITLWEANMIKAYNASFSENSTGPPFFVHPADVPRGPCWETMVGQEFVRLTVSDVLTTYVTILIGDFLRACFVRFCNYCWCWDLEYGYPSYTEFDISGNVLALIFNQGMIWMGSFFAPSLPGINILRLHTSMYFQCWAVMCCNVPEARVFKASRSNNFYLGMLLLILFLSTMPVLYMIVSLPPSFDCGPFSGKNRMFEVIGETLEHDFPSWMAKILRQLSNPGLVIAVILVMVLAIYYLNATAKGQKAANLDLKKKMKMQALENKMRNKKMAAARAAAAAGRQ
UniProt Q9NR96: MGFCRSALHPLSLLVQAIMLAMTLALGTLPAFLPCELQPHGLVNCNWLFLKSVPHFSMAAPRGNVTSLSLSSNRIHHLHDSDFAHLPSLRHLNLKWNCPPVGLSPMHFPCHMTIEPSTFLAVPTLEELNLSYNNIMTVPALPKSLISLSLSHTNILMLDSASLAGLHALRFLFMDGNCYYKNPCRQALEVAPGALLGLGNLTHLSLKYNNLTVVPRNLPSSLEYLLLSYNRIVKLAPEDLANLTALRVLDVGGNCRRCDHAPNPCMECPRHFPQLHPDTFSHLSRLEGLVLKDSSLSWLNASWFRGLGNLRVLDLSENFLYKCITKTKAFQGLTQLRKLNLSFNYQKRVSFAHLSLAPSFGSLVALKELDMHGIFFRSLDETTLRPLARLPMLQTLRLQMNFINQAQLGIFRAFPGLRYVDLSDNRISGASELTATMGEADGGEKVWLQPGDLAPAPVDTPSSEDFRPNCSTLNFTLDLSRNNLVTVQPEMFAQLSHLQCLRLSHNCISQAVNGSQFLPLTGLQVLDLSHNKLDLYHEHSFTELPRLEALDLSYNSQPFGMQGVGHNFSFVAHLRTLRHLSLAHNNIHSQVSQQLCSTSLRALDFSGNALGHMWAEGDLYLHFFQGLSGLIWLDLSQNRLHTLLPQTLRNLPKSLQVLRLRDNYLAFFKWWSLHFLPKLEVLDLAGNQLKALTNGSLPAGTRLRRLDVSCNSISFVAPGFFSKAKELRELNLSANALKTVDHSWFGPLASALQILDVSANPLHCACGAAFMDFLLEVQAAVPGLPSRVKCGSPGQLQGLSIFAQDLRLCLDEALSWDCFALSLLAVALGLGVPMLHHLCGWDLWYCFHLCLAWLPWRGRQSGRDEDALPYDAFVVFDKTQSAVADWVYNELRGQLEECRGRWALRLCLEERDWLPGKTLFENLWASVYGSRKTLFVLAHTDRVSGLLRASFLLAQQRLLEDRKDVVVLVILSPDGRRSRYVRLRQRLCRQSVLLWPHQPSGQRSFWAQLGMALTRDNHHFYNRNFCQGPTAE
UniProt O00220, whole entry, looked up: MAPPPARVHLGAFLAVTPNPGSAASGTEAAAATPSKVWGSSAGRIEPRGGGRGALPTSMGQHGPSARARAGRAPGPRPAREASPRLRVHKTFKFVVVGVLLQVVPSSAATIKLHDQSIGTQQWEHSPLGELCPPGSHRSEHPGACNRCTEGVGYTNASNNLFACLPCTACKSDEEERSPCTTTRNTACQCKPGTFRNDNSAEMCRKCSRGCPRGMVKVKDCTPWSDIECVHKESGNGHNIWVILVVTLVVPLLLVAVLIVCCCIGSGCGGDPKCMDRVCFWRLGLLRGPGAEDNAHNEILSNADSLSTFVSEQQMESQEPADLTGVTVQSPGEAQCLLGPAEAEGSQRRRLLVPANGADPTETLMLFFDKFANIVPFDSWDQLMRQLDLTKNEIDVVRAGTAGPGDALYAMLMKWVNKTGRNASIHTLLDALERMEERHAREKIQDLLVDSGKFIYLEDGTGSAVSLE
UniProt Q9BZW5, whole entry, looked up: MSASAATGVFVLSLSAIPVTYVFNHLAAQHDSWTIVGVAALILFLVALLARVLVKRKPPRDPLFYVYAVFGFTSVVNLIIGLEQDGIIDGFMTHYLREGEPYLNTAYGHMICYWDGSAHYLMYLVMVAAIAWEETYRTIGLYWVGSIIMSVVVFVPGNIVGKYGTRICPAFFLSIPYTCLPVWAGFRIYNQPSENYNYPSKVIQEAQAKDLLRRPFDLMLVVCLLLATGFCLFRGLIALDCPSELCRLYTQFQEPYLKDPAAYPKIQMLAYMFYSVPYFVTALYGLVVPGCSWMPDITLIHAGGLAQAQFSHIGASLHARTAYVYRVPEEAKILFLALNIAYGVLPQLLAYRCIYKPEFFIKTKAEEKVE
UniProt Q8NE00: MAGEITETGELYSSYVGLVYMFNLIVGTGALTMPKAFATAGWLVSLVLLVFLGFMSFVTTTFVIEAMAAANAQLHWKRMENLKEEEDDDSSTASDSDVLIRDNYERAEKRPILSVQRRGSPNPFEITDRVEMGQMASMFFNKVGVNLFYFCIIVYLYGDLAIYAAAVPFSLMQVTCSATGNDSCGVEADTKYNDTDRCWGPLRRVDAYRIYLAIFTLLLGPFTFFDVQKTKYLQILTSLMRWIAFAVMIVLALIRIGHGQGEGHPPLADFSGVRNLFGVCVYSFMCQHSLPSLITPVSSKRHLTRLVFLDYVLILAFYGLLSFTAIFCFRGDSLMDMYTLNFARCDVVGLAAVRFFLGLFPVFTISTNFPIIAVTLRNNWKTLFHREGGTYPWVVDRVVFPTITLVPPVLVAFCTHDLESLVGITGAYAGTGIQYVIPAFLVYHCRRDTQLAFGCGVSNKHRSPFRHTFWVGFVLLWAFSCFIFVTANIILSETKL
UniProt P21580: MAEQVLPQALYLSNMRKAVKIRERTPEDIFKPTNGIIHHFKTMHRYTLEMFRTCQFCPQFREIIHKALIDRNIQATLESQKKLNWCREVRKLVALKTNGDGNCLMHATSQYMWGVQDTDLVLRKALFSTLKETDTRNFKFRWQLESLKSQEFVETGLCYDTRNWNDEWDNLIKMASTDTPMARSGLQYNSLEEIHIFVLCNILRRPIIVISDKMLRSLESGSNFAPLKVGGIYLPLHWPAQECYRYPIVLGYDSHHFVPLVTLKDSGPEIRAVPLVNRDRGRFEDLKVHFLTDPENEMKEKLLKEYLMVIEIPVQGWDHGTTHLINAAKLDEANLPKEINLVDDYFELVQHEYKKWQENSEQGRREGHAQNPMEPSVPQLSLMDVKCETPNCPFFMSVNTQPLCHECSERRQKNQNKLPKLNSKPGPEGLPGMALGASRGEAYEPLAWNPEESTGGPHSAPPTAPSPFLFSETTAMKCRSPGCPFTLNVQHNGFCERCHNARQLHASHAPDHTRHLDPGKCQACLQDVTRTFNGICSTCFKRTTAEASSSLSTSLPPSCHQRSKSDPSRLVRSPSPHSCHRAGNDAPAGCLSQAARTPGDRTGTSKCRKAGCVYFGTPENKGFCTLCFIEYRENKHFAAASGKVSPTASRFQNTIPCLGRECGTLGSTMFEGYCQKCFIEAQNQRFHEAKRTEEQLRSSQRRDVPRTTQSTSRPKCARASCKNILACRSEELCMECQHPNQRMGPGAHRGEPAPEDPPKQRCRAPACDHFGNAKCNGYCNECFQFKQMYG
UniProt O14763, whole entry, looked up: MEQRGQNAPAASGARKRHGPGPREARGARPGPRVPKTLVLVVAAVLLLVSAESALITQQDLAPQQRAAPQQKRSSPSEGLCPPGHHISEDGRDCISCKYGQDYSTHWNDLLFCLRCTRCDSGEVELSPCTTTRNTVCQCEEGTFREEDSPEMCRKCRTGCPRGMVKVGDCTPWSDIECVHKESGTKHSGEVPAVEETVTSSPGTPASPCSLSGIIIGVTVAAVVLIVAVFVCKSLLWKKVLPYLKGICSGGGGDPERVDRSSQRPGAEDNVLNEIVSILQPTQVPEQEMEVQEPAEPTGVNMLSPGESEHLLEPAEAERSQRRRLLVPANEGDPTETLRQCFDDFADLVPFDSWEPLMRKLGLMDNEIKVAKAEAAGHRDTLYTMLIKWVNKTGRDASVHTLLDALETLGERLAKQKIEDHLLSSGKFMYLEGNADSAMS
UniProt Q8IY95: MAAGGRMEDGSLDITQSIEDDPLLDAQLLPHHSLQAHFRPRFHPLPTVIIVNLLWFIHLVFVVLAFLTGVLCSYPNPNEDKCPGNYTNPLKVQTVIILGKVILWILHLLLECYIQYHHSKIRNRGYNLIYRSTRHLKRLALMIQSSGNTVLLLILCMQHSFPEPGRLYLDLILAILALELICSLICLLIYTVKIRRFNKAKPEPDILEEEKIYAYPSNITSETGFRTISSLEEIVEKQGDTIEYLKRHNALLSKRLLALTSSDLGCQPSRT
UniProt Q8N131: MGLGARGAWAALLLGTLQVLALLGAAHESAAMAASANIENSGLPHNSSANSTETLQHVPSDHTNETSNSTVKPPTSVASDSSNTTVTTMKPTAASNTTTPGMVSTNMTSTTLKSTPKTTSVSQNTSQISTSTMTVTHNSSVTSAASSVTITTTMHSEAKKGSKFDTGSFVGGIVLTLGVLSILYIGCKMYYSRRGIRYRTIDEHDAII
UniProt Q5U3C3: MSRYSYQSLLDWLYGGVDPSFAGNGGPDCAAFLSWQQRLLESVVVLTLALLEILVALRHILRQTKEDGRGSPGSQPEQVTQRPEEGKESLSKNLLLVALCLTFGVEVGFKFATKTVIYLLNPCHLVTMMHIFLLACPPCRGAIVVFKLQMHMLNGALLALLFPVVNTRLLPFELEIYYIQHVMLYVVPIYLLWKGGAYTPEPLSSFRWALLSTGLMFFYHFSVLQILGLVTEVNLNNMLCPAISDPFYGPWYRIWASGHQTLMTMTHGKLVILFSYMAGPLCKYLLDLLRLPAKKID
UniProt Q9Y3Q3: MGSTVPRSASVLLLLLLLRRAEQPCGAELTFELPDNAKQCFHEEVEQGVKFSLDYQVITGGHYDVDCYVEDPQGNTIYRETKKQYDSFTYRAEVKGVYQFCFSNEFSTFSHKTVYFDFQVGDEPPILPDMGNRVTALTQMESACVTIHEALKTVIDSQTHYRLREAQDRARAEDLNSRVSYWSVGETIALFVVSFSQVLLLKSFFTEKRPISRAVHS

This is one part of the list.

Compound in the first test: C1=CC(=CC=C1C2=NC3=C(N2)C=C(C=C3)C(=O)N)OC4=CC=C(C=C4)Cl
Nature of the test: log2 fold change, soluble protein after heating vs DMSO (PISA); higher = thermal stabilisation; K562 cells, 10 uM, 30 min; active = over 0.2 and 3.5 SD of the protein, either way, in both replicates (recomputed). Put shortly: (§1)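 Values are thermal stability changes relative to control samples and are taken from duplicates. They are stated as log2 fold changes. Before quantification by TMTpro 16plex LC-MS/MS with equalised channel sums, K562 cells at 2×10^6 cells/mL were treated with 10 μM compound for 30 min, heated in aliquots for 3 min across 48°C-58°C, pooled, extracted in PBS with 0.5% NP-40 at 4°C, and centrifuged at 21,000xg for 90 min to give the soluble supernatant.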
Consider TMEM134 (UniProt Q9H6X4), for which the log2 fold change was inactive: -0.036.
In the case of TMEM69 (UniProt Q5SWH9), the log2 fold change is inactive: -0.009.
Take TMEM177 (UniProt Q53S58): the log2 fold change was inactive: -0.025.
As for TMEM141 (UniProt Q96I45), the log2 fold change is inactive: -0.026.
With TMEM63A (UniProt O94886), the log2 fold change was inactive: 0.019.
The same measure, in the same setting: the value for TMEM120B (UniProt A0PK00) was inactive: 0.026; that for TMEM147 (UniProt Q9BVK8) was inactive: -0.115.
Regarding TMC1 (UniProt Q8TDI8), the log2 fold change is inactive: -0.14.
The same measure, in the same setting: the value for TLR9 isoform 4 (UniProt Q9NR96) was inactive: 0.072; that for TMEM223 (UniProt A0PJW6) was inactive: 0.002; that for TMEM242 (UniProt Q9NWH2) was inactive: 0.1.
For the target TNFRSF10A (UniProt O00220), the log2 fold change is inactive: -0.014.
As to TMEM9B (UniProt Q9NQ34), the log2 fold change is inactive: -0.006.
In the case of TMEM268 isoform 3 (UniProt Q5VZI3), the log2 fold change is inactive: 0.054.
In the case of TMEM87B (UniProt Q96K49), the log2 fold change was inactive: 0.013.
Still for that read-out and setting: the value for TMEM161B (UniProt Q8NDZ6) was inactive: -0.021; that for TMEM14C (UniProt Q9P0S9) was inactive: 0.07.
For the target TM6SF1 (UniProt Q9BZW5), the log2 fold change was inactive: -0.01.
TMEM104 (UniProt Q8NE00): the log2 fold change was inactive: 0.026.
With TNFAIP3 (UniProt P21580), the log2 fold change is inactive: 0.041.
Same read-out and setting: the result for TNFRSF10B (UniProt O14763) reads inactive: 0.026.
As to TM7SF3 (UniProt Q9NS93), the log2 fold change was inactive: 0.03.
On to TMC6 (UniProt Q7Z403), for which the log2 fold change is inactive: 0.025.
On the same count and under the same terms, the result for TMEM192 (UniProt Q8IY95) reads inactive: -0.008.
TMEM41A (UniProt Q96HV5): the log2 fold change was inactive: -0.014.
As for TMEM123 (UniProt Q8N131), the log2 fold change was inactive: 0.04.
TMBIM1 (UniProt Q969X1): the log2 fold change is inactive: -0.017.
The same measure, in the same setting: the result for TMEM219 (UniProt Q86XT9) reads inactive: 0.073; that for TMEM164 (UniProt Q5U3C3), inactive: 0.002; that for TLK2 isoform 2 (UniProt Q86UE8), inactive: 0.074.
The same measure, in the same setting: the result for TMED8 (UniProt Q6PL24) reads inactive: 0.036; that for TMEM267 (UniProt Q0VDI3), inactive: 0.034; that for TMEM181 (UniProt Q9P2C4), inactive: 0.005.
Regarding TMEM106B (UniProt Q9NUM4), the log2 fold change was inactive: 0.031.
For the target TMEM9 (UniProt Q9P0T7), the log2 fold change was inactive: -0.021.
On the same count and under the same terms, the value for TMED3 (UniProt Q9Y3Q3) was inactive: 0.077.
Regarding TMEM189-UBE2V1 (UniProt I3L0A0), the log2 fold change was inactive: 0.019.
For the target TMEM101 (UniProt Q96IK0), the log2 fold change is inactive: 0.027.
As to TMUB1 (UniProt Q9BVT8), the log2 fold change is inactive: 0.057.

Compound in the next test: C1=CC2=C(C=CC(=C2)/C=C\3/C(=O)NC(=NCC4=CC=CS4)S3)N=C1
The description is as above. Put shortly: as §1
In the case of TMEM134 (UniProt Q9H6X4), the log2 fold change is inactive: -0.122.
For the target TMEM69 (UniProt Q5SWH9), the log2 fold change was inactive: 0.047.
Turning to TMEM177 (UniProt Q53S58), the log2 fold change is inactive: 0.062.
On the same count and under the same terms, the result for TMEM141 (UniProt Q96I45) reads inactive: 0.022.
Take TMEM63A (UniProt O94886): the log2 fold change is inactive: -0.033.
On to TMEM120B (UniProt A0PK00), for which the log2 fold change was inactive: -0.046.
Consider TMEM147 (UniProt Q9BVK8), for which the log2 fold change is inactive: 0.044.
Turning to TMC1 (UniProt Q8TDI8), the log2 fold change is inactive: 0.138.
As to TLR9 isoform 4 (UniProt Q9NR96), the log2 fold change was inactive: 0.003.
For TMEM223 (UniProt A0PJW6), the log2 fold change was inactive: -0.009.
In the case of TMEM242 (UniProt Q9NWH2), the log2 fold change is inactive: 0.048.
On to TNFRSF10A (UniProt O00220), for which the log2 fold change is inactive: 0.049.
TMEM9B (UniProt Q9NQ34): the log2 fold change was inactive: 0.055.
Still for that read-out and setting: the result for TMEM268 isoform 3 (UniProt Q5VZI3) reads inactive: 0.024; that for TMEM87B (UniProt Q96K49), inactive: 0.003.
Turning to TMEM161B (UniProt Q8NDZ6), the log2 fold change was inactive: -0.054.
On to TMEM14C (UniProt Q9P0S9), for which the log2 fold change was inactive: 0.016.
For the target TM6SF1 (UniProt Q9BZW5), the log2 fold change was inactive: -0.121.
Same read-out and setting: the value for TMEM104 (UniProt Q8NE00) was inactive: 0.039; that for TNFAIP3 (UniProt P21580) was inactive: -0.042.
The same measure, in the same setting: the result for TNFRSF10B (UniProt O14763) reads inactive: 0.014.
With TM7SF3 (UniProt Q9NS93), the log2 fold change is inactive: -0.101.
As for TMC6 (UniProt Q7Z403), the log2 fold change was inactive: 0.071.
With TMEM192 (UniProt Q8IY95), the log2 fold change was inactive: -0.011.
TMEM41A (UniProt Q96HV5): the log2 fold change was inactive: 0.024.
TMEM123 (UniProt Q8N131): the log2 fold change is inactive: 0.104.
On to TMBIM1 (UniProt Q969X1), for which the log2 fold change is inactive: 0.198.
In the case of TMEM219 (UniProt Q86XT9), the log2 fold change is inactive: 0.001.
Take TMEM164 (UniProt Q5U3C3): the log2 fold change was inactive: 0.129.
On to TLK2 isoform 2 (UniProt Q86UE8), for which the log2 fold change is inactive: -0.041.
TMED8 (UniProt Q6PL24): the log2 fold change is inactive: 0.032.
On to TMEM267 (UniProt Q0VDI3), for which the log2 fold change is inactive: 0.198.
Still for that read-out and setting: the value for TMEM181 (UniProt Q9P2C4) was inactive: -0.321.
Still for that read-out and setting: the result for TMEM106B (UniProt Q9NUM4) reads inactive: 0.051.
Still for that read-out and setting: the result for TMEM9 (UniProt Q9P0T7) reads inactive: -0.034.
As for TMED3 (UniProt Q9Y3Q3), the log2 fold change was inactive: 0.115.
Still for that read-out and setting: the value for TMEM189-UBE2V1 (UniProt I3L0A0) was inactive: 0.055.
Still for that read-out and setting: the result for TMEM101 (UniProt Q96IK0) reads inactive: 0.045; that for TMUB1 (UniProt Q9BVT8), inactive: -0.07.
